{"source": "the supplement of paper PMC5355238", "note": "Structures can show the parent of a compound that is named as a salt. This is one part of the list. Most values lie at the level of the controls, where differences are scatter.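 Reh is a human leukemia cell line; the read-out is the median γH2AX antibody signal in S-phase cells by flow cytometry, with the score counting standard deviations from the median difference of each paired set of plates. Scores above 2.5 were called candidate hits, while scores below -2 mark compounds that lowered the MK1775-induced damage.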"}
{"tested_on": "Reh", "experiment": "Z' of S-phase gammaH2AX difference (drug + MK1775 minus drug alone) (Z-score); higher = stronger synergistic S-phase DNA damage with MK1775", "settings": "MK1775 concentration 400 nM; first compound 10 µM; 4 h"}
{"smiles": "Cc1ccc(S(=O)(=O)C=CC#N)cc1", "note": "+ C=CCn1c(=O)c2cnc(Nc3ccc(N4CCN(C)CC4)cc3)nc2n1-c1cccc(C(C)(C)O)n1 [MK1775]", "Z' of S-phase gammaH2AX difference (Z-score)": "inactive: -1.1"}
{"smiles": "Cc1ccc(N(CC2=NCCN2)c2cccc(O)c2)cc1", "note": "[Phentolamine mesylate] + C=CCn1c(=O)c2cnc(Nc3ccc(N4CCN(C)CC4)cc3)nc2n1-c1cccc(C(C)(C)O)n1 [MK1775]", "Z' of S-phase gammaH2AX difference (Z-score)": "inactive: -0.83"}
{"smiles": "CNC(=O)[C@H]1O[C@@H](n2cnc3c(N)ncnc32)[C@H](O)[C@@H]1O", "note": "[5'-N-Methyl carboxamidoadenosine] + C=CCn1c(=O)c2cnc(Nc3ccc(N4CCN(C)CC4)cc3)nc2n1-c1cccc(C(C)(C)O)n1 [MK1775]", "Z' of S-phase gammaH2AX difference (Z-score)": "inactive: -0.354"}
{"smiles": "CCCCCCCCCCCCCCCC(=O)NCC(COP(=O)([O-])OCC[N+](C)(C)C)OCC", "note": "(racemic) [rac-2-Ethoxy-3-hexadecanamido-1-propylphosphocholine] + C=CCn1c(=O)c2cnc(Nc3ccc(N4CCN(C)CC4)cc3)nc2n1-c1cccc(C(C)(C)O)n1 [MK1775]", "Z' of S-phase gammaH2AX difference (Z-score)": "inactive: -0.391"}
{"smiles": "CCc1ccc(CCOc2ccc(CC3SC(=O)NC3=O)cc2)nc1", "note": "(stereo unspecified) [Pioglitazone (Actos)] + C=CCn1c(=O)c2cnc(Nc3ccc(N4CCN(C)CC4)cc3)nc2n1-c1cccc(C(C)(C)O)n1 [MK1775]", "Z' of S-phase gammaH2AX difference (Z-score)": "inactive: 0.0554"}
{"smiles": "O=C(CCCCCCC(=O)Nc1cccnc1)NO", "note": "[Pyroxamide] + C=CCn1c(=O)c2cnc(Nc3ccc(N4CCN(C)CC4)cc3)nc2n1-c1cccc(C(C)(C)O)n1 [MK1775]", "Z' of S-phase gammaH2AX difference (Z-score)": "inactive: 0.169"}
{"smiles": "CC(C(=O)O)c1ccc(CC2CCCC2=O)cc1", "note": "(stereo unspecified) [loxoprofen] + C=CCn1c(=O)c2cnc(Nc3ccc(N4CCN(C)CC4)cc3)nc2n1-c1cccc(C(C)(C)O)n1 [MK1775]", "Z' of S-phase gammaH2AX difference (Z-score)": "inactive: -1.04"}
{"smiles": "NCCCCC(=O)O", "note": "[5-Aminovaleric acid hydrochloride] + C=CCn1c(=O)c2cnc(Nc3ccc(N4CCN(C)CC4)cc3)nc2n1-c1cccc(C(C)(C)O)n1 [MK1775]", "Z' of S-phase gammaH2AX difference (Z-score)": "inactive: 0.0768"}
{"smiles": "OCCN1CCN(CCCN2c3ccccc3Sc3ccc(C(F)(F)F)cc32)CC1", "note": "[Fluphenazine dihydrochloride] + C=CCn1c(=O)c2cnc(Nc3ccc(N4CCN(C)CC4)cc3)nc2n1-c1cccc(C(C)(C)O)n1 [MK1775]", "Z' of S-phase gammaH2AX difference (Z-score)": "inactive: -0.955"}
{"smiles": "O=C(c1cc(Cc2n[nH]c(=O)c3ccccc23)ccc1F)N1CCN(C(=O)C2CC2)CC1", "note": "[Olaparib (AZD2281)] + C=CCn1c(=O)c2cnc(Nc3ccc(N4CCN(C)CC4)cc3)nc2n1-c1cccc(C(C)(C)O)n1 [MK1775]", "Z' of S-phase gammaH2AX difference (Z-score)": "inactive: 0.014"}
{"smiles": "Clc1ccc2c(c1)C(N1CCNCC1)=Nc1ccccc1O2", "note": "[Amoxapine] + C=CCn1c(=O)c2cnc(Nc3ccc(N4CCN(C)CC4)cc3)nc2n1-c1cccc(C(C)(C)O)n1 [MK1775]", "Z' of S-phase gammaH2AX difference (Z-score)": "inactive: -0.127"}
{"smiles": "O=C(O)CCc1nc(-c2ccccc2)c(-c2ccccc2)o1", "note": "[Oxaprozin] + C=CCn1c(=O)c2cnc(Nc3ccc(N4CCN(C)CC4)cc3)nc2n1-c1cccc(C(C)(C)O)n1 [MK1775]", "Z' of S-phase gammaH2AX difference (Z-score)": "inactive: -0.0825"}
{"smiles": "O=C(OCCN1CCOCC1)C1(c2ccccc2)CCCCC1", "note": "+ C=CCn1c(=O)c2cnc(Nc3ccc(N4CCN(C)CC4)cc3)nc2n1-c1cccc(C(C)(C)O)n1 [MK1775]", "Z' of S-phase gammaH2AX difference (Z-score)": "inactive: 0.272"}
{"smiles": "CC(C)C[C@H](NC(=O)[C@H](Cc1ccccc1)NC(=O)c1cnccn1)B(O)O", "note": "[Bortezomib (Velcade)] + C=CCn1c(=O)c2cnc(Nc3ccc(N4CCN(C)CC4)cc3)nc2n1-c1cccc(C(C)(C)O)n1 [MK1775]", "Z' of S-phase gammaH2AX difference (Z-score)": "inactive: -1.02"}
{"smiles": "COc1ccc(CC(C)NCC(O)c2ccc(O)c(NC=O)c2)cc1", "note": "(stereo unspecified) [Formoterol] + C=CCn1c(=O)c2cnc(Nc3ccc(N4CCN(C)CC4)cc3)nc2n1-c1cccc(C(C)(C)O)n1 [MK1775]", "Z' of S-phase gammaH2AX difference (Z-score)": "active: 4.45"}
{"smiles": "CS(=O)(=O)c1ccc(C(=O)Nc2ccc(Cl)c(-c3ccccn3)c2)c(Cl)c1", "note": "[Vismodegib (GDC-0449)] + C=CCn1c(=O)c2cnc(Nc3ccc(N4CCN(C)CC4)cc3)nc2n1-c1cccc(C(C)(C)O)n1 [MK1775]", "Z' of S-phase gammaH2AX difference (Z-score)": "inactive: 0.129"}
{"smiles": "CCCCN1CCC(n2c(=O)[nH]c3ccccc32)CC1", "note": "[NS 521 oxalate] + C=CCn1c(=O)c2cnc(Nc3ccc(N4CCN(C)CC4)cc3)nc2n1-c1cccc(C(C)(C)O)n1 [MK1775]", "Z' of S-phase gammaH2AX difference (Z-score)": "inactive: -0.252"}
{"smiles": "CC1(C)CCC(c2ccc(Cl)cc2)=C(CN2CCN(c3ccc(C(=O)NS(=O)(=O)c4ccc(N[C@H](CCN5CCOCC5)CSc5ccccc5)c(S(=O)(=O)C(F)(F)F)c4)cc3)CC2)C1", "note": "[ABT-263 (Navitoclax)] + C=CCn1c(=O)c2cnc(Nc3ccc(N4CCN(C)CC4)cc3)nc2n1-c1cccc(C(C)(C)O)n1 [MK1775]", "Z' of S-phase gammaH2AX difference (Z-score)": "inactive: -0.000739"}
{"smiles": "CCOC(=O)N1CCC(=C2c3ccc(Cl)cc3CCc3cccnc32)CC1", "note": "[Loratadine] + C=CCn1c(=O)c2cnc(Nc3ccc(N4CCN(C)CC4)cc3)nc2n1-c1cccc(C(C)(C)O)n1 [MK1775]", "Z' of S-phase gammaH2AX difference (Z-score)": "inactive: 1.48"}
{"smiles": "O=C1NC(=O)/C(=C\\c2cccc(C(F)(F)F)c2)S1", "note": "+ C=CCn1c(=O)c2cnc(Nc3ccc(N4CCN(C)CC4)cc3)nc2n1-c1cccc(C(C)(C)O)n1 [MK1775]", "Z' of S-phase gammaH2AX difference (Z-score)": "inactive: 0.341"}
{"smiles": "C[C@]12CCC(=O)C=C1CC[C@@H]1[C@@H]2C(=O)C[C@@]2(C)[C@H]1CC[C@]2(O)C(=O)CO", "note": "[Cortisone] + C=CCn1c(=O)c2cnc(Nc3ccc(N4CCN(C)CC4)cc3)nc2n1-c1cccc(C(C)(C)O)n1 [MK1775]", "Z' of S-phase gammaH2AX difference (Z-score)": "inactive: -0.214"}
{"smiles": "COCCCC/C(=N\\OCCN)c1ccc(C(F)(F)F)cc1", "note": "[Fluvoxamine maleate] + C=CCn1c(=O)c2cnc(Nc3ccc(N4CCN(C)CC4)cc3)nc2n1-c1cccc(C(C)(C)O)n1 [MK1775]", "Z' of S-phase gammaH2AX difference (Z-score)": "inactive: 0.585"}
{"smiles": "O=S(=O)(O)C1CCNCC1", "note": "[Piperidine-4-sulphonic acid] + C=CCn1c(=O)c2cnc(Nc3ccc(N4CCN(C)CC4)cc3)nc2n1-c1cccc(C(C)(C)O)n1 [MK1775]", "Z' of S-phase gammaH2AX difference (Z-score)": "inactive: -0.689"}
{"smiles": "COc1cc2nc(N3CCN(C(=O)OCc4ccccc4)[C@H](C(=O)NC(C)(C)C)C3)nc(N)c2cc1OC", "note": "+ C=CCn1c(=O)c2cnc(Nc3ccc(N4CCN(C)CC4)cc3)nc2n1-c1cccc(C(C)(C)O)n1 [MK1775]", "Z' of S-phase gammaH2AX difference (Z-score)": "inactive: 0.218"}
{"smiles": "CNCCNS(=O)(=O)c1cccc2cnccc12", "note": "[H-8 dihydrochloride] + C=CCn1c(=O)c2cnc(Nc3ccc(N4CCN(C)CC4)cc3)nc2n1-c1cccc(C(C)(C)O)n1 [MK1775]", "Z' of S-phase gammaH2AX difference (Z-score)": "inactive: -1.07"}
{"smiles": "CCNC(=O)[C@H]1O[C@@H](n2cnc3c(N)nc(NCCc4ccc(CCC(=O)O)cc4)nc32)[C@H](O)[C@@H]1O", "note": "+ C=CCn1c(=O)c2cnc(Nc3ccc(N4CCN(C)CC4)cc3)nc2n1-c1cccc(C(C)(C)O)n1 [MK1775]", "Z' of S-phase gammaH2AX difference (Z-score)": "inactive: 0.311"}
{"smiles": "C[C@](N)(Cc1ccc(O)cc1)C(=O)O", "note": "[L-alpha-Methyl-p-tyrosine] + C=CCn1c(=O)c2cnc(Nc3ccc(N4CCN(C)CC4)cc3)nc2n1-c1cccc(C(C)(C)O)n1 [MK1775]", "Z' of S-phase gammaH2AX difference (Z-score)": "inactive: 0.155"}
{"smiles": "CCN(CC)CCCC(C)Nc1ccnc2cc(Cl)ccc12", "note": "(stereo unspecified) [Chloroquine diphosphate] + C=CCn1c(=O)c2cnc(Nc3ccc(N4CCN(C)CC4)cc3)nc2n1-c1cccc(C(C)(C)O)n1 [MK1775]", "Z' of S-phase gammaH2AX difference (Z-score)": "inactive: -0.00334"}
{"smiles": "C[N+](C)(C)CCOP(=O)(O)OP(=O)([O-])OC[C@H]1O[C@@H](n2ccc(N)nc2=O)[C@H](O)[C@@H]1O", "note": "[Citicoline sodium] + C=CCn1c(=O)c2cnc(Nc3ccc(N4CCN(C)CC4)cc3)nc2n1-c1cccc(C(C)(C)O)n1 [MK1775]", "Z' of S-phase gammaH2AX difference (Z-score)": "inactive: -0.0735"}
{"smiles": "CN=c1nc(-c2ccccc2)n(-c2ccccc2)s1", "note": "+ C=CCn1c(=O)c2cnc(Nc3ccc(N4CCN(C)CC4)cc3)nc2n1-c1cccc(C(C)(C)O)n1 [MK1775]", "Z' of S-phase gammaH2AX difference (Z-score)": "inactive: 0.233"}
{"smiles": "CNc1ncnc2c1ncn2[C@@H]1O[C@H](CO)[C@@H](O)[C@H]1O", "note": "[N6-Methyladenosine] + C=CCn1c(=O)c2cnc(Nc3ccc(N4CCN(C)CC4)cc3)nc2n1-c1cccc(C(C)(C)O)n1 [MK1775]", "Z' of S-phase gammaH2AX difference (Z-score)": "inactive: 0.781"}
{"smiles": "N[C@@H](CC(=O)O)C(=O)O", "note": "[L-Aspartic acid] + C=CCn1c(=O)c2cnc(Nc3ccc(N4CCN(C)CC4)cc3)nc2n1-c1cccc(C(C)(C)O)n1 [MK1775]", "Z' of S-phase gammaH2AX difference (Z-score)": "inactive: 0.471"}
{"smiles": "c1ccc2c(c1)CCCC2C1=NCCN1", "note": "(stereo unspecified) [Tetrahydrozoline hydrochloride] + C=CCn1c(=O)c2cnc(Nc3ccc(N4CCN(C)CC4)cc3)nc2n1-c1cccc(C(C)(C)O)n1 [MK1775]", "Z' of S-phase gammaH2AX difference (Z-score)": "inactive: 0.483"}
{"smiles": "CC1(C)CCC=[N+]1[O-]", "note": "[5,5-Dimethyl-1-pyrroline-N-oxide] + C=CCn1c(=O)c2cnc(Nc3ccc(N4CCN(C)CC4)cc3)nc2n1-c1cccc(C(C)(C)O)n1 [MK1775]", "Z' of S-phase gammaH2AX difference (Z-score)": "inactive: 0.503"}
{"smiles": "CC1(C)CCC(NC(=O)[C@@H](N)CCC(=O)O)CC1", "note": "+ C=CCn1c(=O)c2cnc(Nc3ccc(N4CCN(C)CC4)cc3)nc2n1-c1cccc(C(C)(C)O)n1 [MK1775]", "Z' of S-phase gammaH2AX difference (Z-score)": "inactive: -0.471"}
{"smiles": "O=C(O)C1CCNCC1", "note": "[Isonipecotic acid] + C=CCn1c(=O)c2cnc(Nc3ccc(N4CCN(C)CC4)cc3)nc2n1-c1cccc(C(C)(C)O)n1 [MK1775]", "Z' of S-phase gammaH2AX difference (Z-score)": "inactive: 0.085"}
